According to the supplement of paper PMC4604168 (melanoma cell lines):
Some of the results follow. Repeats are few or missing, and single values can be far off.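 The apoptosis fraction was the count of cleaved-PARP antibody-stained nuclei relative to all DNA-stained nuclei, imaged in 1,536-well plates. Screening doses were set so most cells survived, and baseline and induced cleaved-PARP levels vary greatly across cell lines.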

test system: WM115; assay: cleaved PARP positive nuclei fraction relative to DMSO control; melanoma cells; higher = more apoptosis; conditions: library dose: low library concentration; 72 h

Question: How did the “cleaved PARP positive nuclei fraction” value turn out when C[C@@H](N)c1ccc(C(=O)Nc2ccnc3[nH]ccc23)cc1 + Cc1cc([N+](=O)[O-])ccc1NS(=O)(=O)c1cc(Cl)ccc1Cl [FH535] (first compound 0.4 µM, partner dose 1 µM) was run?
Answer: 169%

Question: With CS(=O)(=O)c1ccc(C(=O)Nc2ccc(Cl)c(-c3ccccn3)c2)c(Cl)c1 [vismodegib] + O=S(=O)(c1ccccc1)N(CC(F)(F)F)c1ccc(C(O)(C(F)(F)F)C(F)(F)F)cc1 [T0901317] (first compound 1 µM, partner dose 1.4 µM) as the compound, how does the “cleaved PARP positive nuclei fraction” value read?
Answer: 58.3%

Question: Which “cleaved PARP positive nuclei fraction” value does the source give for CCN(CC)CCNC(=O)c1c(C)[nH]c(/C=C2\C(=O)Nc3ccc(F)cc32)c1C [sunitinib] + COc1cc(N2CCC(N3CCN(C)CC3)CC2)ccc1Nc1ncc(Cl)c(Nc2ccccc2S(=O)(=O)C(C)C)n1 [NVP-TAE684] (first compound 0.4 µM, partner dose 0.08 µM) here?
Answer: 134%

Question: How did the “cleaved PARP positive nuclei fraction” value turn out when CC1(C)CCC(c2ccc(Cl)cc2)=C(CN2CCN(c3ccc(C(=O)NS(=O)(=O)c4ccc(N[C@H](CCN5CCOCC5)CSc5ccccc5)c(S(=O)(=O)C(F)(F)F)c4)cc3)CC2)C1 + CC(C)CCN1c2nc(Nc3cc(F)c(O)c(F)c3)ncc2N(C)C(=O)C1C [BID1870] (first compound 0.4 µM, partner dose 0.2 µM) was run?
Answer: 412%

Question: Which “cleaved PARP positive nuclei fraction” value does the source give for C[C@@H](N)c1ccc(C(=O)Nc2ccnc3[nH]ccc23)cc1 + CN(NC(=O)CC(=O)NN(C)C(=S)c1ccccc1)C(=S)c1ccccc1 [STA4783] (first compound 0.4 µM, partner dose 0.006 µM) here?
Answer: 233%

Question: NC1(c2ccc(-c3nc4ccn5c(=O)[nH]nc5c4cc3-c3ccccc3)cc2)CCC1 + COc1cc(N2CCC(N3CCN(C)CC3)CC2)ccc1Nc1ncc(Cl)c(Nc2ccccc2S(=O)(=O)C(C)C)n1 [NVP-TAE684] (first compound 0.4 µM, partner dose 0.08 µM) was tested. Which “cleaved PARP positive nuclei fraction” value did it give?
Answer: 85.4%

Question: NC(=O)c1ccc(N(C(N)=O)c2c(F)cccc2F)nc1-c1ccc(F)cc1F + CCCCCCCCCCCC1=C(O)C(=O)C=C(O)C1=O [Embelin] (first compound 0.4 µM, partner dose 1.2 µM) was tested. Which “cleaved PARP positive nuclei fraction” value did it give?
Answer: 48.1%

Question: CS(=O)(=O)c1ccc(C(=O)Nc2ccc(Cl)c(-c3ccccn3)c2)c(Cl)c1 [vismodegib] + NCC(=O)Nc1ccc(-n2nc(C(F)(F)F)cc2-c2ccc3c(ccc4ccccc43)c2)cc1 [OSU03012] (first compound 1 µM, partner dose 1 µM) was tested. Which “cleaved PARP positive nuclei fraction” value did it give?
Answer: 77.8%

Question: NC1(c2ccc(-c3nc4ccn5c(=O)[nH]nc5c4cc3-c3ccccc3)cc2)CCC1 + O=S(=O)(c1ccccc1)N(CC(F)(F)F)c1ccc(C(O)(C(F)(F)F)C(F)(F)F)cc1 [T0901317] (first compound 0.4 µM, partner dose 1.4 µM) was tested. Which “cleaved PARP positive nuclei fraction” value did it give?
Answer: 179%

Question: How did the “cleaved PARP positive nuclei fraction” value turn out when NC(=O)c1ccc(N(C(N)=O)c2c(F)cccc2F)nc1-c1ccc(F)cc1F + CC(C)(C)c1cnc(CSc2cnc(NC(=O)C3CCNCC3)s2)o1 [SNS-032] (first compound 0.4 µM, partner dose 0.01 µM) was run?
Answer: 73.2%

Question: NC(=O)c1ccc(N(C(N)=O)c2c(F)cccc2F)nc1-c1ccc(F)cc1F + CO[C@@H]1[C@H](N(C)C(=O)c2ccccc2)C[C@H]2O[C@]1(C)n1c3ccccc3c3c4c(c5c6ccccc6n2c5c31)C(=O)NC4 [Midostaurin] (first compound 0.4 µM, partner dose 0.08 µM) was tested. Which “cleaved PARP positive nuclei fraction” value did it give?
Answer: 95.1%

Question: With Cn1cnc2c(F)c(Nc3ccc(Br)cc3Cl)c(C(=O)NOCCO)cc21 [selumetinib] + COc1cc2c(Oc3ccc4[nH]c(C)cc4c3F)ncnc2cc1OCCCN1CCCC1 [cediranib] (first compound 0.015 µM, partner dose 0.4 µM) as the compound, how does the “cleaved PARP positive nuclei fraction” value read?
Answer: 144%

Question: C[C@]1(O)C[C@@H](c2nc(-c3ccc4ccc(-c5ccccc5)nc4c3)c3c(N)nccn32)C1 + c1cc(-c2cnn3cc(-c4ccc(OCCN5CCCCC5)cc4)cnc23)ccn1 [Dorsomorphin] (first compound 0.4 µM, partner dose 0.4 µM) was tested. Which “cleaved PARP positive nuclei fraction” value did it give?
Answer: 110%

Question: Which “cleaved PARP positive nuclei fraction” value does the source give for CC1(C)CCC(c2ccc(Cl)cc2)=C(CN2CCN(c3ccc(C(=O)NS(=O)(=O)c4ccc(N[C@H](CCN5CCOCC5)CSc5ccccc5)c(S(=O)(=O)C(F)(F)F)c4)cc3)CC2)C1 + NCC(=O)Nc1ccc(-n2nc(C(F)(F)F)cc2-c2ccc3c(ccc4ccccc43)c2)cc1 [OSU03012] (first compound 0.4 µM, partner dose 1 µM) here?
Answer: 971%

Question: How did the “cleaved PARP positive nuclei fraction” value turn out when CN(c1ncccc1CNc1nc(Nc2ccc3c(c2)CC(=O)N3)ncc1C(F)(F)F)S(C)(=O)=O + O=C(O)c1ccc(-c2c[nH]c3ncc(-c4ccccc4)cc23)cc1C1CCCC1 [GSK650394] (first compound 0.08 µM, partner dose 0.16 µM) was run?
Answer: 132%

Question: Which “cleaved PARP positive nuclei fraction” value does the source give for NC(=O)c1ccc(N(C(N)=O)c2c(F)cccc2F)nc1-c1ccc(F)cc1F + COc1ccc(-c2ccc3c(N4CCOCC4)nc(N4C[C@@H](C)O[C@@H](C)C4)nc3n2)cc1CO [KU0063794] (first compound 0.4 µM, partner dose 0.02 µM) here?
Answer: 112%

Question: For NC1(c2ccc(-c3nc4ccn5c(=O)[nH]nc5c4cc3-c3ccccc3)cc2)CCC1 + CCCCCCCCCCCC1=C(O)C(=O)C=C(O)C1=O [Embelin] (first compound 0.4 µM, partner dose 1.2 µM), which “cleaved PARP positive nuclei fraction” value is on record?
Answer: 104%

Question: For NC(=O)c1ccc(N(C(N)=O)c2c(F)cccc2F)nc1-c1ccc(F)cc1F + CC1(C)NC(=O)N(c2ccc([N+](=O)[O-])c(C(F)(F)F)c2)C1=O [nilutamide] (first compound 0.4 µM, partner dose 1 µM), which “cleaved PARP positive nuclei fraction” value is on record?
Answer: 82%

Question: With COc1ccc(C2=N[C@@H](c3ccc(Cl)cc3)[C@@H](c3ccc(Cl)cc3)N2C(=O)N2CCNC(=O)C2)c(OC(C)C)c1 [Nutlin-3] + Cn1cncc1[C@@](N)(c1ccc(Cl)cc1)c1ccc2c(c1)c(-c1cccc(Cl)c1)cc(=O)n2C [tipifarnib] (first compound 0.1 µM, partner dose 0.01 µM) as the compound, how does the “cleaved PARP positive nuclei fraction” value read?
Answer: 288%

Question: With CN(c1ncccc1CNc1nc(Nc2ccc3c(c2)CC(=O)N3)ncc1C(F)(F)F)S(C)(=O)=O + Cc1cc([N+](=O)[O-])ccc1NS(=O)(=O)c1cc(Cl)ccc1Cl [FH535] (first compound 0.08 µM, partner dose 1 µM) as the compound, how does the “cleaved PARP positive nuclei fraction” value read?
Answer: 130%

Question: With CC(=O)O[C@@]12CO[C@@H]1C[C@H](O)[C@@]1(C)C(=O)[C@H](O)C3=C(C)[C@@H](OC(=O)[C@H](O)[C@@H](NC(=O)OC(C)(C)C)c4ccccc4)C[C@@](O)([C@@H](OC(=O)c4ccccc4)[C@H]21)C3(C)C [Docetaxel] + N#Cc1c(O)c2c(-c3ccc(-c4ccccc4O)cc3)csc2[nH]c1=O [A769662] (first compound 0.0001 µM, partner dose 2 µM) as the compound, how does the “cleaved PARP positive nuclei fraction” value read?
Answer: 516%

Question: How did the “cleaved PARP positive nuclei fraction” value turn out when CC(=O)O[C@@]12CO[C@@H]1C[C@H](O)[C@@]1(C)C(=O)[C@H](O)C3=C(C)[C@@H](OC(=O)[C@H](O)[C@@H](NC(=O)OC(C)(C)C)c4ccccc4)C[C@@](O)([C@@H](OC(=O)c4ccccc4)[C@H]21)C3(C)C [Docetaxel] + COc1ccc2c(c1)CCC1C2CCC2(C)C(NCCCCCCN3C(=O)C=CC3=O)CCC12 [U73122] (first compound 0.0001 µM, partner dose 0.4 µM) was run?
Answer: 368%

Question: How did the “cleaved PARP positive nuclei fraction” value turn out when CN(c1ncccc1CNc1nc(Nc2ccc3c(c2)CC(=O)N3)ncc1C(F)(F)F)S(C)(=O)=O + COc1cc(N2CCC(N3CCN(C)CC3)CC2)ccc1Nc1ncc(Cl)c(Nc2ccccc2S(=O)(=O)C(C)C)n1 [NVP-TAE684] (first compound 0.08 µM, partner dose 0.08 µM) was run?
Answer: 62.1%

Question: How did the “cleaved PARP positive nuclei fraction” value turn out when NC(=O)c1ccc(N(C(N)=O)c2c(F)cccc2F)nc1-c1ccc(F)cc1F + O=C(O)c1ccc(-c2c[nH]c3ncc(-c4ccccc4)cc23)cc1C1CCCC1 [GSK650394] (first compound 0.4 µM, partner dose 0.16 µM) was run?
Answer: 88.8%

Question: For C[C@@H](N)c1ccc(C(=O)Nc2ccnc3[nH]ccc23)cc1 + Cc1cc(N2CCOCC2)cc2[nH]c(-c3c(NC[C@@H](O)c4cccc(Cl)c4)cc[nH]c3=O)nc12 [BMS536924] (first compound 0.4 µM, partner dose 0.2 µM), which “cleaved PARP positive nuclei fraction” value is on record?
Answer: 60.8%

Question: With CC(=O)O[C@@]12CO[C@@H]1C[C@H](O)[C@@]1(C)C(=O)[C@H](O)C3=C(C)[C@@H](OC(=O)[C@H](O)[C@@H](NC(=O)OC(C)(C)C)c4ccccc4)C[C@@](O)([C@@H](OC(=O)c4ccccc4)[C@H]21)C3(C)C [Docetaxel] + COc1ccc(-c2ccc3c(N4CCOCC4)nc(N4C[C@@H](C)O[C@@H](C)C4)nc3n2)cc1CO [KU0063794] (first compound 0.0001 µM, partner dose 0.02 µM) as the compound, how does the “cleaved PARP positive nuclei fraction” value read?
Answer: 356%

Question: CCCCCCCCc1ccc(CCC(N)(CO)CO)cc1 [fingolimod] + Cc1cc([N+](=O)[O-])ccc1NS(=O)(=O)c1cc(Cl)ccc1Cl [FH535] (first compound 2 µM, partner dose 1 µM) was tested. Which “cleaved PARP positive nuclei fraction” value did it give?
Answer: 188%

Question: How did the “cleaved PARP positive nuclei fraction” value turn out when CCCCCCCCc1ccc(CCC(N)(CO)CO)cc1 [fingolimod] + Cn1cc(/C=C2\C(=O)Nc3cccnc32)c2ccccc21 [GW441756] (first compound 2 µM, partner dose 0.4 µM) was run?
Answer: 27.1%

Question: For Cn1cnc2c(F)c(Nc3ccc(Br)cc3Cl)c(C(=O)NOCCO)cc21 [selumetinib] + O=C(Nc1ccccc1)c1cc([N+](=O)[O-])ccc1Cl [GW9662] (first compound 0.015 µM, partner dose 2 µM), which “cleaved PARP positive nuclei fraction” value is on record?
Answer: 44.6%
